Values of other authors as cited in US20040132806A1, “Pravastatin pharmaceutical formulations and methods of their use” (priority 2002, published 2004).
At least one structure is not confirmed: it was looked up by name or label, or the drawing left a doubt.

Settings: administered in the evening vs morning

Structure (SMILES): CC[C@H](C)C(=O)O[C@H]1C[C@H](O)C=C2C=C[C@H](C)[C@H](CC[C@@H](O)C[C@@H](O)CC(=O)O)[C@H]21 [pravastatin, Pravastatin]
- efficacy of evening dose compared with morning dose: marginally more effective
